The values below come from the supplement of paper PMC4604168 (melanoma cell lines).

The list shows a part of the results. Single values are uncertain, as repeats are few or missing.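 Imaging used 1,536-well plates; nuclei positive for cleaved PARP by antibody were divided by total DNA-stained nuclei to yield the apoptosis fraction. Doses for screening kept most cells viable, and cell lines differ markedly in resting and induced cleaved-PARP levels.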

Common to all, as to test: cleaved PARP positive nuclei fraction relative to DMSO control; melanoma cells; higher = more apoptosis
Holding throughout (details): library dose: low library concentration; 72 h

Test [1] deals with WM115.
In test [2] the test system is WM1716.
The subject of test [3] is WM1745.
Test [4] has as its system WM3526.
In test [5] the test system is WM3619.
Test [6] relates to WM451Lu.

Consider `CC1(C)CCC(c2ccc(Cl)cc2)=C(CN2CCN(c3ccc(C(=O)NS(=O)(=O)c4ccc(N[C@H](CCN5CCOCC5)CSc5ccccc5)c(S(=O)(=O)C(F)(F)F)c4)cc3)CC2)C1` + COc1ccc(Cl)c(Nc2nc3ccccc3nc2NS(=O)(=O)c2cccc(NC(=O)C(C)(C)N)c2)c1 [XL147] (first compound 0.4 µM, partner dose 0.8 µM), for which the “cleaved PARP positive nuclei fraction” value in test [1] was 403%; in test [2], 125%; in test [3] it was 369%; in test [4], 206%; in test [5], 133%; in test [6] it was 95.3%.

For `NC(=O)c1ccc(N(C(N)=O)c2c(F)cccc2F)nc1-c1ccc(F)cc1F` + OCc1c[nH]c2ccccc12 [Indole-3-carbinol] (first compound 0.4 µM, partner dose 0.8 µM), the “cleaved PARP positive nuclei fraction” value in test [1] worked out at 222%; in test [2], 53.3%; in test [3], 101%; in test [4], 80.1%; in test [5], 94.7%; in test [6] it was 91.1%.

Turning to `Cn1cnc2c(F)c(Nc3ccc(Br)cc3Cl)c(C(=O)NOCCO)cc21` [selumetinib] + Cn1nnc2c(C(N)=O)ncn2c1=O [temozolomide] (first compound 0.015 µM, partner dose 2 µM), the “cleaved PARP positive nuclei fraction” value stood at 140% in test [1]; 303% in test [2]; 86.6% in test [3]; 52.2% in test [4]; 127% in test [5]; 84.2% in test [6].

Regarding `C[C@@H](N)c1ccc(C(=O)Nc2ccnc3[nH]ccc23)cc1` + Cn1cncc1[C@@](N)(c1ccc(Cl)cc1)c1ccc2c(c1)c(-c1cccc(Cl)c1)cc(=O)n2C [tipifarnib] (first compound 0.4 µM, partner dose 0.01 µM), the “cleaved PARP positive nuclei fraction” value was determined as 73.3% in test [1]; 242% in test [2]; 117% in test [3]; 28% in test [4]; 104% in test [5]; 31% in test [6].

Consider `CS(=O)(=O)c1ccc(C(=O)Nc2ccc(Cl)c(-c3ccccn3)c2)c(Cl)c1` [vismodegib] + Cc1cc([N+](=O)[O-])ccc1NS(=O)(=O)c1cc(Cl)ccc1Cl [FH535] (first compound 1 µM, partner dose 1 µM), for which the “cleaved PARP positive nuclei fraction” value in test [1] is 236%; in test [2] it was 25.4%; in test [3] it was 83.1%; in test [4], 38%; in test [5], 100%; in test [6] it was 520%.

Turning to `C[C@]1(O)C[C@@H](c2nc(-c3ccc4ccc(-c5ccccc5)nc4c3)c3c(N)nccn32)C1` + Cc1cc(N2CCOCC2)cc2[nH]c(-c3c(NC[C@@H](O)c4cccc(Cl)c4)cc[nH]c3=O)nc12 [BMS536924] (first compound 0.4 µM, partner dose 0.2 µM), the “cleaved PARP positive nuclei fraction” value in test [1] stood at 47.9%; in test [2], 85.8%; in test [3], 118%; in test [4], 27.6%; in test [5] it was 118%; in test [6] it was 48.4%.

For the compound `C[C@@H](N)c1ccc(C(=O)Nc2ccnc3[nH]ccc23)cc1` + C[C@@H]1CCN(C(=O)CC#N)C[C@@H]1N(C)c1ncnc2[nH]ccc12 [CP690550] (first compound 0.4 µM, partner dose 1 µM), the “cleaved PARP positive nuclei fraction” value in test [1] stood at 41%; in test [2], 238%; in test [3], 114%; in test [4] it was 203%; in test [5] it was 70.2%; in test [6], 57.5%.

In the case of `Cn1cnc2c(F)c(Nc3ccc(Br)cc3Cl)c(C(=O)NOCCO)cc21` [selumetinib] + O=C(CCCCCCC(=O)Nc1ccccc1)NO [vorinostat] (first compound 0.015 µM, partner dose 0.08 µM), the “cleaved PARP positive nuclei fraction” value in test [1] came out at 77.2%; in test [2] it was 35.2%; in test [3], 102%; in test [4], 96%; in test [5], 116%; in test [6], 72.6%.

On to `COc1ccc(C2=N[C@@H](c3ccc(Cl)cc3)[C@@H](c3ccc(Cl)cc3)N2C(=O)N2CCNC(=O)C2)c(OC(C)C)c1` [Nutlin-3] + O=C(O)C(=O)Nc1sc2c(c1C(=O)O)CCNC2 [TCS401] (first compound 0.1 µM, partner dose 1.66667 µM), for which the “cleaved PARP positive nuclei fraction” value in test [1] is 91%; in test [2], 53.1%; in test [3] it was 98%; in test [4], 80.4%; in test [5], 109%; in test [6], 358%.

Take `Cn1cnc2c(F)c(Nc3ccc(Br)cc3Cl)c(C(=O)NOCCO)cc21` [selumetinib] + CN(C)S(=O)(=O)c1ccc2c(c1)/C(=C/c1cc3c([nH]1)CCCC3)C(=O)N2 [SU6656] (first compound 0.015 µM, partner dose 0.4 µM): the “cleaved PARP positive nuclei fraction” value worked out at 313% in test [1]; 63.7% in test [2]; 128% in test [3]; 36.3% in test [4]; 112% in test [5]; 97.2% in test [6].

With `COc1ccc(C2=N[C@@H](c3ccc(Cl)cc3)[C@@H](c3ccc(Cl)cc3)N2C(=O)N2CCNC(=O)C2)c(OC(C)C)c1` [Nutlin-3] + Cc1ccc(NC(=O)c2cccc(N(C)C)c2)cc1NC(=O)c1ccc(O)cc1 [ZM336372] (first compound 0.1 µM, partner dose 2 µM), the “cleaved PARP positive nuclei fraction” value was 144% in test [1]; 140% in test [2]; 99.8% in test [3]; 148% in test [4]; 104% in test [5]; 238% in test [6].

Consider `CCN(CC)CCNC(=O)c1c(C)[nH]c(/C=C2\C(=O)Nc3ccc(F)cc32)c1C` [sunitinib] + Clc1ccc(Nc2nnc(Cc3ccncc3)c3ccccc23)cc1 [vatalanib] (first compound 0.4 µM, partner dose 2 µM), for which the “cleaved PARP positive nuclei fraction” value was 152% in test [1]; 106% in test [2]; 189% in test [3]; 46.8% in test [4]; 95% in test [5]; 52.5% in test [6].

As for `CC1(C)CCC(c2ccc(Cl)cc2)=C(CN2CCN(c3ccc(C(=O)NS(=O)(=O)c4ccc(N[C@H](CCN5CCOCC5)CSc5ccccc5)c(S(=O)(=O)C(F)(F)F)c4)cc3)CC2)C1` + Nc1ccn([C@@H]2O[C@H](CO)[C@@H](O)C2(F)F)c(=O)n1 [gemcitabine] (first compound 0.4 µM, partner dose 0.0004 µM), the “cleaved PARP positive nuclei fraction” value in test [1] was found to be 138%; in test [2], 194%; in test [3] it was 605%; in test [4], 41.6%; in test [5], 146%; in test [6], 258%.

As for `CS(=O)(=O)c1ccc(C(=O)Nc2ccc(Cl)c(-c3ccccn3)c2)c(Cl)c1` [vismodegib] + O=C(O)c1ccc(-c2c[nH]c3ncc(-c4ccccc4)cc23)cc1C1CCCC1 [GSK650394] (first compound 1 µM, partner dose 0.16 µM), the “cleaved PARP positive nuclei fraction” value was 62% in test [1]; 77.4% in test [2]; 93.8% in test [3]; 57.3% in test [4]; 81.3% in test [5]; 55.9% in test [6].

Consider `CN(c1ncccc1CNc1nc(Nc2ccc3c(c2)CC(=O)N3)ncc1C(F)(F)F)S(C)(=O)=O` + COc1cc(Nc2ncc(F)c(Nc3ccc4c(n3)NC(=O)C(C)(C)O4)n2)cc(OC)c1OC [Tamatinib] (first compound 0.08 µM, partner dose 0.4 µM), for which the “cleaved PARP positive nuclei fraction” value in test [1] came to 116%; in test [2] it was 134%; in test [3], 195%; in test [4], 112%; in test [5], 110%; in test [6], 163%.

As to `CC1(C)CCC(c2ccc(Cl)cc2)=C(CN2CCN(c3ccc(C(=O)NS(=O)(=O)c4ccc(N[C@H](CCN5CCOCC5)CSc5ccccc5)c(S(=O)(=O)C(F)(F)F)c4)cc3)CC2)C1` + COc1ccc2c(c1)CCC1C2CCC2(C)C(NCCCCCCN3C(=O)C=CC3=O)CCC12 [U73122] (first compound 0.4 µM, partner dose 0.4 µM), the “cleaved PARP positive nuclei fraction” value in test [1] amounted to 135%; in test [2] it was 214%; in test [3], 845%; in test [4], 70.8%; in test [5] it was 112%; in test [6] it was 97.9%.

As for `CN(c1ncccc1CNc1nc(Nc2ccc3c(c2)CC(=O)N3)ncc1C(F)(F)F)S(C)(=O)=O` + c1cc(-c2cnn3cc(-c4ccc(OCCN5CCCCC5)cc4)cnc23)ccn1 [Dorsomorphin] (first compound 0.08 µM, partner dose 0.4 µM), the “cleaved PARP positive nuclei fraction” value is 661% in test [1]; 271% in test [2]; 109% in test [3]; 87.6% in test [4]; 118% in test [5]; 99.6% in test [6].

For the compound `CCN(CC)CCNC(=O)c1c(C)[nH]c(/C=C2\C(=O)Nc3ccc(F)cc32)c1C` [sunitinib] + O=C(O)c1ccc2c(c1)nc(Nc1cccc(Cl)c1)c1ccncc12 [CX4945] (first compound 0.4 µM, partner dose 0.4 µM), the “cleaved PARP positive nuclei fraction” value in test [1] amounted to 220%; in test [2], 112%; in test [3], 114%; in test [4] it was 56.5%; in test [5], 80.2%; in test [6], 48.6%.

With `CS(=O)(=O)c1ccc(C(=O)Nc2ccc(Cl)c(-c3ccccn3)c2)c(Cl)c1` [vismodegib] + Cc1ccc(NC(=O)c2cccc(N(C)C)c2)cc1NC(=O)c1ccc(O)cc1 [ZM336372] (first compound 1 µM, partner dose 2 µM), the “cleaved PARP positive nuclei fraction” value in test [1] was determined as 63.3%; in test [2], 93.5%; in test [3] it was 101%; in test [4] it was 111%; in test [5], 103%; in test [6] it was 89.9%.

On to `CC1(C)CCC(c2ccc(Cl)cc2)=C(CN2CCN(c3ccc(C(=O)NS(=O)(=O)c4ccc(N[C@H](CCN5CCOCC5)CSc5ccccc5)c(S(=O)(=O)C(F)(F)F)c4)cc3)CC2)C1` + CCN(CC)CCNC(=O)c1c(C)[nH]c(/C=C2\C(=O)Nc3ccc(F)cc32)c1C [sunitinib] (first compound 0.4 µM, partner dose 0.4 µM), for which the “cleaved PARP positive nuclei fraction” value in test [1] came to 662%; in test [2] it was 142%; in test [3], 1040%; in test [4], 69.2%; in test [5], 139%; in test [6], 68.4%.

Consider `C[C@]1(O)C[C@@H](c2nc(-c3ccc4ccc(-c5ccccc5)nc4c3)c3c(N)nccn32)C1` + Oc1nc(-c2ccc(C(F)(F)F)cc2)nc2c1CSCC2 [XAV939] (first compound 0.4 µM, partner dose 2 µM), for which the “cleaved PARP positive nuclei fraction” value in test [1] stood at 52.5%; in test [2], 549%; in test [3], 122%; in test [4], 93.1%; in test [5], 90.6%; in test [6], 112%.

As to `NC1(c2ccc(-c3nc4ccn5c(=O)[nH]nc5c4cc3-c3ccccc3)cc2)CCC1` + CC(C)CCN1c2nc(Nc3cc(F)c(O)c(F)c3)ncc2N(C)C(=O)C1C [BID1870] (first compound 0.4 µM, partner dose 0.2 µM), the “cleaved PARP positive nuclei fraction” value in test [1] was found to be 181%; in test [2] it was 204%; in test [3], 92.3%; in test [4], 59.6%; in test [5], 112%; in test [6] it was 68%.

Take `C[C@]1(O)C[C@@H](c2nc(-c3ccc4ccc(-c5ccccc5)nc4c3)c3c(N)nccn32)C1` + CS(=O)(=O)CCNCc1ccc(-c2ccc3ncnc(Nc4ccc(OCc5cccc(F)c5)c(Cl)c4)c3c2)o1 [lapatinib] (first compound 0.4 µM, partner dose 0.8 µM): the “cleaved PARP positive nuclei fraction” value in test [1] turned out to be 86.8%; in test [2] it was 126%; in test [3], 115%; in test [4], 101%; in test [5], 96.7%; in test [6] it was 331%.

For `CN(c1ncccc1CNc1nc(Nc2ccc3c(c2)CC(=O)N3)ncc1C(F)(F)F)S(C)(=O)=O` + Cc1ccc(NC(=O)c2cccc(N(C)C)c2)cc1NC(=O)c1ccc(O)cc1 [ZM336372] (first compound 0.08 µM, partner dose 2 µM), the “cleaved PARP positive nuclei fraction” value amounted to 169% in test [1]; 167% in test [2]; 90.6% in test [3]; 58.3% in test [4]; 105% in test [5]; 62.2% in test [6].
